Source: PMC7688313
Results are given in words; binding and its absence hold for the method and conditions named. In cells and extracts the contact can be indirect. Some results given as binding are weak or reduced against the parent protein; the word gives no strength. For part of these data: Where a sequence is shown, tags or fusion partners need not be part of it. Values belong to the substance of their own block, whether it stands above or below them.

By UniProt entry, the sequences of proteins in these tests, tags left out. Residues count along the entry.
UniProt Q9EQW7: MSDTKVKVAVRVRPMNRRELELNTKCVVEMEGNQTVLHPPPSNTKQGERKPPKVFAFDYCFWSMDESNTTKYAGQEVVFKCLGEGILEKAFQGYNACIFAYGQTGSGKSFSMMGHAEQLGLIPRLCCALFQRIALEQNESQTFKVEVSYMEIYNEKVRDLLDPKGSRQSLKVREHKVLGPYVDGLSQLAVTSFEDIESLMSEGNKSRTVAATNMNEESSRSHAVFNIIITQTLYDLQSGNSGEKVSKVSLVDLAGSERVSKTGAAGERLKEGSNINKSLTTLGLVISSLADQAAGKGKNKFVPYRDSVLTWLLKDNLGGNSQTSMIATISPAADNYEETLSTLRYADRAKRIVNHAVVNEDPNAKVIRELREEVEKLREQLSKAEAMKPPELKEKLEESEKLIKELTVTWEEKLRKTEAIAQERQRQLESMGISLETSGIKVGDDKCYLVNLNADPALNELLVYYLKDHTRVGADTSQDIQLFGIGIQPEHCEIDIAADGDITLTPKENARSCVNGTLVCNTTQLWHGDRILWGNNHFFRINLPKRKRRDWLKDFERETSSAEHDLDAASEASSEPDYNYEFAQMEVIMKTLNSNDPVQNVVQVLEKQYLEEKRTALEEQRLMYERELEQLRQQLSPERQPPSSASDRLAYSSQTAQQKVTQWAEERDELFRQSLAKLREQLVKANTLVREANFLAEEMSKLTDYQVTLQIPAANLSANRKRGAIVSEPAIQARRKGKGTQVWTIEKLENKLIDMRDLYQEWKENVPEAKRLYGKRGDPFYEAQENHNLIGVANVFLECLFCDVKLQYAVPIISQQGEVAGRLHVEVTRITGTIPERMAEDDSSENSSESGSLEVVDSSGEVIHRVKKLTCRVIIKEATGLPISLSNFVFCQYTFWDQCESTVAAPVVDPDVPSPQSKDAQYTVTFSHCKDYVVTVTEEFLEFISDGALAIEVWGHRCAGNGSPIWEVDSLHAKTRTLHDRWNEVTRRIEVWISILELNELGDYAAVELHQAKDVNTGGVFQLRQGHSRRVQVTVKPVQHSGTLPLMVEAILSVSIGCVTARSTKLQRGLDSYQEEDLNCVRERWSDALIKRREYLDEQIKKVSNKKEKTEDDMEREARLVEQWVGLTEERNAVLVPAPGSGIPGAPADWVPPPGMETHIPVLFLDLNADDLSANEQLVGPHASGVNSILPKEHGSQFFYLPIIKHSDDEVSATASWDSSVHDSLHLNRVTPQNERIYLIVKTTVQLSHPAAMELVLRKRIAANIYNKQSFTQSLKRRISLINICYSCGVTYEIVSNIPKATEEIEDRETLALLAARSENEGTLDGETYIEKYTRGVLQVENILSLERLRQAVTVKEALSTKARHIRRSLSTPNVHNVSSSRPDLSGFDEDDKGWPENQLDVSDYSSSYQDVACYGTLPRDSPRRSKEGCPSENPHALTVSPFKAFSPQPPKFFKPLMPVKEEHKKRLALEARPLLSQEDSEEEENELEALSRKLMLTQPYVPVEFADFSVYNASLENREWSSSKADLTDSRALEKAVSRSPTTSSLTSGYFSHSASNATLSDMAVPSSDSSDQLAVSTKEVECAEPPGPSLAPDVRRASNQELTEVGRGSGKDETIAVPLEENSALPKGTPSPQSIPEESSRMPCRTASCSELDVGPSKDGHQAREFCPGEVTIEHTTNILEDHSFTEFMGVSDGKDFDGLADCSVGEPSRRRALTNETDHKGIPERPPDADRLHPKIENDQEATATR
UniProt P35951, residues 22-862: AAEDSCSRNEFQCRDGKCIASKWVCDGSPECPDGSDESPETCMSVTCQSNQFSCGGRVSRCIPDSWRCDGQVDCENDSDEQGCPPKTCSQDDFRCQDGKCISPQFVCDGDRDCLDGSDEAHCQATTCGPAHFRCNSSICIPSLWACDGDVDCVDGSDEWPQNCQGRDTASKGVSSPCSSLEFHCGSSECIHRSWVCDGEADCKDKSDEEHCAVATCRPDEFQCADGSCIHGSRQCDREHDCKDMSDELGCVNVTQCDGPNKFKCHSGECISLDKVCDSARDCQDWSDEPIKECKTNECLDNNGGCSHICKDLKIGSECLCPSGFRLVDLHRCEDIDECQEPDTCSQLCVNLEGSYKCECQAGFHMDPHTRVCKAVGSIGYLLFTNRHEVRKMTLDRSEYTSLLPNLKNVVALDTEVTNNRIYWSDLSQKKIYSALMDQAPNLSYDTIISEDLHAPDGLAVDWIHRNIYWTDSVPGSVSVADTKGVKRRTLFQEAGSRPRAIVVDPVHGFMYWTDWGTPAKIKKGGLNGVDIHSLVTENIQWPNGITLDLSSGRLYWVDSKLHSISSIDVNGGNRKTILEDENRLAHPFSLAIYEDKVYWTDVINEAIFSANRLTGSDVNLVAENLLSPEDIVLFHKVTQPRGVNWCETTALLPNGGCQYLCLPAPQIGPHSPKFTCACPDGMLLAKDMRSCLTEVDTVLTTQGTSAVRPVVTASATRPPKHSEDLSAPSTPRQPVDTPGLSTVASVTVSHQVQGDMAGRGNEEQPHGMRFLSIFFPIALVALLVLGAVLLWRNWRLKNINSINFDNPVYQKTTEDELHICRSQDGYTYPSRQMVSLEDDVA

Tests used:
[1] = molecular target: T1, BLOS1-FLAG (mouse) (UniProt O55102); assay: co-IP; HEK293T cells co-transfected for 48 to 72 hr; whole cell lysate (50 mM Tris-HCl pH 7.0, 150 mM NaCl, 1 mM EDTA, 1% Triton X-100) incubated with anti-FLAG M2 agarose beads overnight at 4°C, no cross-linking; immunoblotting
T1 sequence: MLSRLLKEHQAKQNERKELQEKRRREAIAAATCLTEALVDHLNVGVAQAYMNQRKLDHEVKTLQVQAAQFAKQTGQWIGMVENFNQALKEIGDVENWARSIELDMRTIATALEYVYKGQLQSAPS

[2] = molecular target: T2, GST-BLOS1 (mouse) (UniProt O55102); assay: pull-down; GST fusion protein on glutathione-Sepharose beads, washed, incubated with 500 µL mouse liver lysate overnight at 4°C; immunoblotting; only the target purified
T2 sequence: T1 sequence

[3] = molecular target: KIF13A-FLAG (mouse) (UniProt Q9EQW7); assay: co-IP; HEK293T cells co-transfected for 48 to 72 hr; whole cell lysate (50 mM Tris-HCl pH 7.0, 150 mM NaCl, 1 mM EDTA, 1% Triton X-100) incubated with anti-FLAG M2 agarose beads overnight at 4°C, no cross-linking; immunoblotting

binding [1]: binds
Substance: LDLR (co-overexpressed with BLOS1-FLAG in HEK293T) (from UniProt P35951 22-862) (receptor)

binding [2]: binds
Substance: LDLR (endogenous, mouse liver lysate) (from UniProt P35951 22-862) (receptor)

binding [3]: binds
Substance: LDLR-HA (from UniProt P35951 22-862) (receptor)
